Measured values published in patent US20220218659A1, “PI3K/LYN-ACLY Signaling Inhibition” (Institute For Cancer Research d/b/a The Research Institute …, priority 2019, published 2022).
Results are given in words; binding and its absence hold for the method and conditions named. In cells and extracts the contact can be indirect. Some entries that bind do so weakly or less than the wild type.

Protein sequences, listed by entry. Tags and fused reporters are not part of them. Residues count along the entry.
UniProt P53396: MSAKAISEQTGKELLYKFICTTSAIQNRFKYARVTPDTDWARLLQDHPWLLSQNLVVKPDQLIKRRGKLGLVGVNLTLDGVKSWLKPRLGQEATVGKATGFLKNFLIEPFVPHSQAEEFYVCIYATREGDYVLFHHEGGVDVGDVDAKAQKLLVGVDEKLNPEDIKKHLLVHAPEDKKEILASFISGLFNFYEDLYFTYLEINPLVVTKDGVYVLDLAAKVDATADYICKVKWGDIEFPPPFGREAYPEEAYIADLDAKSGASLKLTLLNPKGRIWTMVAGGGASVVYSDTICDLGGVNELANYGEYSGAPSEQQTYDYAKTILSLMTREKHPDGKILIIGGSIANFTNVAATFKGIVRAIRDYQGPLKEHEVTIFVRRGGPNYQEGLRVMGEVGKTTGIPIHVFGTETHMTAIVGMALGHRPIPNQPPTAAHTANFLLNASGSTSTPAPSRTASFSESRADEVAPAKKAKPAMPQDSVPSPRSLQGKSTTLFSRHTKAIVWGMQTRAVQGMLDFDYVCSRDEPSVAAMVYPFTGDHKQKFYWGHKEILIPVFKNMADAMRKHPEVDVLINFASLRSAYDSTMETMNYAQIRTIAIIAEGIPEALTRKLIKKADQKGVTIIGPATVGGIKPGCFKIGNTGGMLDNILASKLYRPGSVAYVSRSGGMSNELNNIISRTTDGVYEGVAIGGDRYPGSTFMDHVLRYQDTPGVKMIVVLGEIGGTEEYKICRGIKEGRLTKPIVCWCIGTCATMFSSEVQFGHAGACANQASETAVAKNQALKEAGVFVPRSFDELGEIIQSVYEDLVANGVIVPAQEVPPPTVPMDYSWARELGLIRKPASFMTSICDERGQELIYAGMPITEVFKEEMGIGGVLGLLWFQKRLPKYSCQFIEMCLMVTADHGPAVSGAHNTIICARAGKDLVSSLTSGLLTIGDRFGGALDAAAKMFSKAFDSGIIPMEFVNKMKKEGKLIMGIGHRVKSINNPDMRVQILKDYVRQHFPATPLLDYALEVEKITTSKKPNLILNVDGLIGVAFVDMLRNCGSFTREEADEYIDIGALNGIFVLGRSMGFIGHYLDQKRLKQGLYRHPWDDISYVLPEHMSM
UniProt P07948, residues 2-512: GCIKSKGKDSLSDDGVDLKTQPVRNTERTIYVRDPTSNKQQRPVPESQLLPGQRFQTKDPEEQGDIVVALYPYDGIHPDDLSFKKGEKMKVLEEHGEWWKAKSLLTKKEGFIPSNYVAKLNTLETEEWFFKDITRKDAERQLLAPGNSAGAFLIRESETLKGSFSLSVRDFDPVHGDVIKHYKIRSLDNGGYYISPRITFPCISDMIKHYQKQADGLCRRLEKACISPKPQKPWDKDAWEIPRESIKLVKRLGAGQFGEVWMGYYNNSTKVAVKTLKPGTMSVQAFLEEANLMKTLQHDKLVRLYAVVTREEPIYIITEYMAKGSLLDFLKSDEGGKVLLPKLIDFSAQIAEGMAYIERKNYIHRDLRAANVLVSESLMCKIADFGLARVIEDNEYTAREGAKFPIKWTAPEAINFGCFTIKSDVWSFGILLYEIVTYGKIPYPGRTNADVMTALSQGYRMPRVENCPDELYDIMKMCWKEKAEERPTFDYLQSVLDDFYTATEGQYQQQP

Key:
[1] = molecular target: ACLY (ATP citrate lyase), endogenous, in HL-60 AML cells (UniProt P53396); experiment: heading of the FIG. 3 legend (co-immunoprecipitation and in vitro kinase assays)
[2] = molecular target: ACLY (ATP citrate lyase), endogenous, in HL-60 AML cells (UniProt P53396); experiment: co-immunoprecipitation with anti-LYN antibody from HL-60 lysate, western blot for ACLY
[3] = molecular target: ACLY (ATP citrate lyase), endogenous, in HL-60 AML cells (UniProt P53396); experiment: summary sentence in Example 9, referring to the earlier co-immunoprecipitation and kinase assays

Measured: binding

Lyn tyrosine kinase, endogenous, immunoprecipitated from HL-60 AML cells (from UniProt P07948 2-512) (enzyme)
binds: all assays above
